Source: PubChem BioAssay AID1508597 (Cure First, 2020)

Purpose: 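Survival screen with siRNA in ovarian cancer cells derived from patients, with or without rucaparib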 (primary screen)
System: human ovarian carcinoma lines grown from tumours: OCI-P5x (papillary serous) and OCI-C5x (clear cell)
Reagent: siRNA pool against human genes, 1.25 pmol siRNA per well
Time to read-out: 72 h or 96 h, depending on the cell culture
Treatment: rucaparib 20 µM (about IC30) or vehicle, present until read-out
Measurement: 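ATP luminescence measured at 72 or 96 h according to the culture, then normalised and expressed as percent viability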
Scale: viability, normalised: higher = more viable cells remaining
Hit rule: 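Active when normalised viability falls below 80 percent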
Calls: active = viability under 80%; inactive = viability 80% or more
Here is a random part of about 2,100 reagents tested. 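Calls flag viability under 80% in either arm, not effects specific to rucaparib; the reference for percent is not stated.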 Not stated in the record: the 100% reference.

For NODAL (nodal growth differentiation factor), rucaparib or vehicle Rucaparib, cell line OCI-C5x (clear cell), technical replicate 1, the values are viability, normalised (%) = 46.5; active.
With NODAL (nodal growth differentiation factor), rucaparib or vehicle Rucaparib, cell line OCI-C5x (clear cell), technical replicate 2, the entry reads viability, normalised (%) = 51.1; active.
NODAL (nodal growth differentiation factor), rucaparib or vehicle Rucaparib, cell line OCI-C5x (clear cell), technical replicate 3 showed viability, normalised (%) = 51.6; active.
With NODAL (nodal growth differentiation factor), rucaparib or vehicle Rucaparib, cell line OCI-P5x (serous), technical replicate 1, the entry reads viability, normalised (%) = 52.4; active.
NODAL (nodal growth differentiation factor), rucaparib or vehicle Rucaparib, cell line OCI-P5x (serous), technical replicate 2 gave viability, normalised (%) = 62; active.
NODAL (nodal growth differentiation factor), rucaparib or vehicle Rucaparib, cell line OCI-P5x (serous), technical replicate 3 scored viability, normalised (%) = 60.7; active.
With NODAL (nodal growth differentiation factor), rucaparib or vehicle Vehicle, cell line OCI-C5x (clear cell), technical replicate 1 the deposit lists viability, normalised (%) = 62.2; active.
With NODAL (nodal growth differentiation factor), rucaparib or vehicle Vehicle, cell line OCI-C5x (clear cell), technical replicate 2, the values are viability, normalised (%) = 37.4; active.
For NODAL (nodal growth differentiation factor), rucaparib or vehicle Vehicle, cell line OCI-C5x (clear cell), technical replicate 3, the entry reads viability, normalised (%) = 51.7; active.
With NODAL (nodal growth differentiation factor), rucaparib or vehicle Vehicle, cell line OCI-P5x (serous), technical replicate 1, the entry reads viability, normalised (%) = 65; active.
With NODAL (nodal growth differentiation factor), rucaparib or vehicle Vehicle, cell line OCI-P5x (serous), technical replicate 2 the deposit lists viability, normalised (%) = 67.6; active.
With NODAL (nodal growth differentiation factor), rucaparib or vehicle Vehicle, cell line OCI-P5x (serous), technical replicate 3, the values are viability, normalised (%) = 83.5; inactive.
For USB1 (U6 snRNA biogenesis phosphodiesterase 1), rucaparib or vehicle Rucaparib, cell line OCI-C5x (clear cell), technical replicate 1, the values are viability, normalised (%) = 58.8; active.
USB1 (U6 snRNA biogenesis phosphodiesterase 1), rucaparib or vehicle Rucaparib, cell line OCI-C5x (clear cell), technical replicate 2 gave viability, normalised (%) = 46.2; active.
With USB1 (U6 snRNA biogenesis phosphodiesterase 1), rucaparib or vehicle Rucaparib, cell line OCI-C5x (clear cell), technical replicate 3 the deposit lists viability, normalised (%) = 46.6; active.
For USB1 (U6 snRNA biogenesis phosphodiesterase 1), rucaparib or vehicle Rucaparib, cell line OCI-P5x (serous), technical replicate 1 the deposit lists viability, normalised (%) = 60.8; active.
USB1 (U6 snRNA biogenesis phosphodiesterase 1), rucaparib or vehicle Rucaparib, cell line OCI-P5x (serous), technical replicate 2 showed viability, normalised (%) = 69.3; active.
USB1 (U6 snRNA biogenesis phosphodiesterase 1), rucaparib or vehicle Rucaparib, cell line OCI-P5x (serous), technical replicate 3 showed viability, normalised (%) = 62.5; active.
USB1 (U6 snRNA biogenesis phosphodiesterase 1), rucaparib or vehicle Vehicle, cell line OCI-C5x (clear cell), technical replicate 1 gave viability, normalised (%) = 57.8; active.
USB1 (U6 snRNA biogenesis phosphodiesterase 1), rucaparib or vehicle Vehicle, cell line OCI-C5x (clear cell), technical replicate 2 scored viability, normalised (%) = 53.7; active.
With USB1 (U6 snRNA biogenesis phosphodiesterase 1), rucaparib or vehicle Vehicle, cell line OCI-C5x (clear cell), technical replicate 3, the values are viability, normalised (%) = 51.4; active.
For USB1 (U6 snRNA biogenesis phosphodiesterase 1), rucaparib or vehicle Vehicle, cell line OCI-P5x (serous), technical replicate 1, the values are viability, normalised (%) = 67.8; active.
With USB1 (U6 snRNA biogenesis phosphodiesterase 1), rucaparib or vehicle Vehicle, cell line OCI-P5x (serous), technical replicate 2, the entry reads viability, normalised (%) = 74; active.
For USB1 (U6 snRNA biogenesis phosphodiesterase 1), rucaparib or vehicle Vehicle, cell line OCI-P5x (serous), technical replicate 3, the entry reads viability, normalised (%) = 80.5; inactive.
With SATB2 (SATB homeobox 2), rucaparib or vehicle Rucaparib, cell line OCI-C5x (clear cell), technical replicate 1, the values are viability, normalised (%) = 35.8; active.
SATB2 (SATB homeobox 2), rucaparib or vehicle Rucaparib, cell line OCI-C5x (clear cell), technical replicate 2 showed viability, normalised (%) = 31.3; active.
With SATB2 (SATB homeobox 2), rucaparib or vehicle Rucaparib, cell line OCI-C5x (clear cell), technical replicate 3 the deposit lists viability, normalised (%) = 24.4; active.
SATB2 (SATB homeobox 2), rucaparib or vehicle Rucaparib, cell line OCI-P5x (serous), technical replicate 1 gave viability, normalised (%) = 33.2; active.
SATB2 (SATB homeobox 2), rucaparib or vehicle Rucaparib, cell line OCI-P5x (serous), technical replicate 2 showed viability, normalised (%) = 42.3; active.
SATB2 (SATB homeobox 2), rucaparib or vehicle Rucaparib, cell line OCI-P5x (serous), technical replicate 3 scored viability, normalised (%) = 47.6; active.
With SATB2 (SATB homeobox 2), rucaparib or vehicle Vehicle, cell line OCI-C5x (clear cell), technical replicate 1 the deposit lists viability, normalised (%) = 33.9; active.
SATB2 (SATB homeobox 2), rucaparib or vehicle Vehicle, cell line OCI-C5x (clear cell), technical replicate 2 scored viability, normalised (%) = 33.3; active.
SATB2 (SATB homeobox 2), rucaparib or vehicle Vehicle, cell line OCI-C5x (clear cell), technical replicate 3 gave viability, normalised (%) = 29.7; active.
SATB2 (SATB homeobox 2), rucaparib or vehicle Vehicle, cell line OCI-P5x (serous), technical replicate 1 showed viability, normalised (%) = 58.5; active.
With SATB2 (SATB homeobox 2), rucaparib or vehicle Vehicle, cell line OCI-P5x (serous), technical replicate 2, the values are viability, normalised (%) = 70.4; active.
SATB2 (SATB homeobox 2), rucaparib or vehicle Vehicle, cell line OCI-P5x (serous), technical replicate 3 scored viability, normalised (%) = 67.1; active.
With ELAC2 (elaC ribonuclease Z 2), rucaparib or vehicle Rucaparib, cell line OCI-C5x (clear cell), technical replicate 1 the deposit lists viability, normalised (%) = 55.3; active.
With ELAC2 (elaC ribonuclease Z 2), rucaparib or vehicle Rucaparib, cell line OCI-C5x (clear cell), technical replicate 2, the entry reads viability, normalised (%) = 59; active.
ELAC2 (elaC ribonuclease Z 2), rucaparib or vehicle Rucaparib, cell line OCI-C5x (clear cell), technical replicate 3 scored viability, normalised (%) = 41.8; active.
For ELAC2 (elaC ribonuclease Z 2), rucaparib or vehicle Rucaparib, cell line OCI-P5x (serous), technical replicate 1, the entry reads viability, normalised (%) = 47.6; active.
ELAC2 (elaC ribonuclease Z 2), rucaparib or vehicle Rucaparib, cell line OCI-P5x (serous), technical replicate 2 showed viability, normalised (%) = 53.3; active.
For ELAC2 (elaC ribonuclease Z 2), rucaparib or vehicle Rucaparib, cell line OCI-P5x (serous), technical replicate 3, the values are viability, normalised (%) = 41.9; active.
With ELAC2 (elaC ribonuclease Z 2), rucaparib or vehicle Vehicle, cell line OCI-C5x (clear cell), technical replicate 1, the entry reads viability, normalised (%) = 63.6; active.
For ELAC2 (elaC ribonuclease Z 2), rucaparib or vehicle Vehicle, cell line OCI-C5x (clear cell), technical replicate 2 the deposit lists viability, normalised (%) = 49.8; active.
ELAC2 (elaC ribonuclease Z 2), rucaparib or vehicle Vehicle, cell line OCI-C5x (clear cell), technical replicate 3 scored viability, normalised (%) = 66.4; active.
With ELAC2 (elaC ribonuclease Z 2), rucaparib or vehicle Vehicle, cell line OCI-P5x (serous), technical replicate 1, the values are viability, normalised (%) = 52.9; active.
With ELAC2 (elaC ribonuclease Z 2), rucaparib or vehicle Vehicle, cell line OCI-P5x (serous), technical replicate 2, the entry reads viability, normalised (%) = 64.1; active.
ELAC2 (elaC ribonuclease Z 2), rucaparib or vehicle Vehicle, cell line OCI-P5x (serous), technical replicate 3 showed viability, normalised (%) = 35.7; active.

A run of entries taken from the entries so far, as a working copy:
SATB2 (SATB homeobox 2), rucaparib or vehicle Rucaparib, cell line OCI-P5x (serous), technical replicate 3 — viability, normalised (%) = 47.6; Outcome = active
SATB2 (SATB homeobox 2), rucaparib or vehicle Vehicle, cell line OCI-C5x (clear cell), technical replicate 1 — viability, normalised (%) = 33.9; Outcome = active
SATB2 (SATB homeobox 2), rucaparib or vehicle Vehicle, cell line OCI-C5x (clear cell), technical replicate 2 — viability, normalised (%) = 33.3; Outcome = active
SATB2 (SATB homeobox 2), rucaparib or vehicle Vehicle, cell line OCI-C5x (clear cell), technical replicate 3 — viability, normalised (%) = 29.7; Outcome = active
SATB2 (SATB homeobox 2), rucaparib or vehicle Vehicle, cell line OCI-P5x (serous), technical replicate 1 — viability, normalised (%) = 58.5; Outcome = active
